{"source": "PubChem BioAssay AID1259308 | NCATS, 2017", "purpose": "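Candidate targets for better recombinant protein yield in mammalian cells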 (primary screen)", "cells": "human HEK293 embryonic kidney cells stably expressing firefly luciferase (HEK-CMV-Luc2-Hygro)", "reagents": "single siRNA against human genes, 0.8 pmol siRNA per well", "timing": "72 h", "detection": "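Reporter luminescence and viable-cell signal on separate replicate plates, given as percent of non-targeting control and median/MAD z-scores, plus per-cell luciferase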", "direction": "total luciferase, z-score: higher = more reporter protein produced", "hit rule": "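Active when the median/MAD z-score for overall luciferase is greater than 3; a gene was taken forward for validation with new siRNAs if at least two of its three siRNAs passed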", "meaning of the calls": "active = raised luciferase; inactive = no rise", "note": "In all, the deposit lists about 59,000 reagents; shown is a random part of them. About 1,510 of all reagents (2.6%) count as active. 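Calls use total luciferase alone and ignore viability, so some active siRNAs may act by altering cell number.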 The numbers tell different reagents against one gene apart. Further read-outs or replicates are left out here. No sequences are given here."}
{"gene": "MAGEA8 (MAGE family member A8)", "reagent no.": 1, "total luciferase, z-score": 1.78, "Outcome": "inactive"}
{"gene": "MAGEA8 (MAGE family member A8)", "reagent no.": 2, "total luciferase, z-score": -1.15, "Outcome": "inactive"}
{"gene": "MAGEA8 (MAGE family member A8)", "reagent no.": 3, "total luciferase, z-score": -1.04, "Outcome": "inactive"}
{"gene": "KAT14 (lysine acetyltransferase 14)", "reagent no.": 1, "total luciferase, z-score": -0.523, "Outcome": "inactive"}
{"gene": "KAT14 (lysine acetyltransferase 14)", "reagent no.": 2, "total luciferase, z-score": 0.274, "Outcome": "inactive"}
{"gene": "KAT14 (lysine acetyltransferase 14)", "reagent no.": 3, "total luciferase, z-score": -0.514, "Outcome": "inactive"}
{"gene": "ASB9 (ankyrin repeat and SOCS box containing 9)", "reagent no.": 1, "total luciferase, z-score": -0.592, "Outcome": "inactive"}
{"gene": "ASB9 (ankyrin repeat and SOCS box containing 9)", "reagent no.": 2, "total luciferase, z-score": 0.197, "Outcome": "inactive"}
{"gene": "ASB9 (ankyrin repeat and SOCS box containing 9)", "reagent no.": 3, "total luciferase, z-score": 3.54, "Outcome": "active"}
{"gene": "SLC2A1", "reagent no.": 1, "total luciferase, z-score": -2.29, "Outcome": "inactive"}
{"gene": "SLC2A1", "reagent no.": 2, "total luciferase, z-score": -1.35, "Outcome": "inactive"}
{"gene": "SLC2A1", "reagent no.": 3, "total luciferase, z-score": 0.578, "Outcome": "inactive"}
{"gene": "TOPAZ1 (testis and ovary specific TOPAZ 1)", "reagent no.": 1, "total luciferase, z-score": -0.244, "Outcome": "inactive"}
{"gene": "TOPAZ1 (testis and ovary specific TOPAZ 1)", "reagent no.": 2, "total luciferase, z-score": 1.43, "Outcome": "inactive"}
{"gene": "TOPAZ1 (testis and ovary specific TOPAZ 1)", "reagent no.": 3, "total luciferase, z-score": -1.16, "Outcome": "inactive"}
{"gene": "SMPDL3A (sphingomyelin phosphodiesterase acid like 3A)", "reagent no.": 1, "total luciferase, z-score": -1.14, "Outcome": "inactive"}
{"gene": "SMPDL3A (sphingomyelin phosphodiesterase acid like 3A)", "reagent no.": 2, "total luciferase, z-score": -1.32, "Outcome": "inactive"}
{"gene": "SMPDL3A (sphingomyelin phosphodiesterase acid like 3A)", "reagent no.": 3, "total luciferase, z-score": 0.288, "Outcome": "inactive"}
{"gene": "PAQR7 (progestin and adipoQ receptor family member 7)", "reagent no.": 1, "total luciferase, z-score": 3.75, "Outcome": "active"}
{"gene": "PAQR7 (progestin and adipoQ receptor family member 7)", "reagent no.": 2, "total luciferase, z-score": 1.51, "Outcome": "inactive"}
{"gene": "PAQR7 (progestin and adipoQ receptor family member 7)", "reagent no.": 3, "total luciferase, z-score": 1.36, "Outcome": "inactive"}

2 entries from above, sorted by “total luciferase, z-score”, ascending:
{"gene": "ASB9 (ankyrin repeat and SOCS box containing 9)", "reagent no.": 1, "total luciferase, z-score": -0.592, "Outcome": "inactive"}
{"gene": "KAT14 (lysine acetyltransferase 14)", "reagent no.": 3, "total luciferase, z-score": -0.514, "Outcome": "inactive"}
